From PMC3019112
No constants are given. Whether binding was seen depends on the method and setting. In cells and extracts the contact can be indirect. Some binding calls cover weakened binding; strength is not graded here.

Sequences of proteins named here, by UniProt entry; tags and fusion partners are left off. Residues count along the entry.
UniProt P48356, residues 22-1162: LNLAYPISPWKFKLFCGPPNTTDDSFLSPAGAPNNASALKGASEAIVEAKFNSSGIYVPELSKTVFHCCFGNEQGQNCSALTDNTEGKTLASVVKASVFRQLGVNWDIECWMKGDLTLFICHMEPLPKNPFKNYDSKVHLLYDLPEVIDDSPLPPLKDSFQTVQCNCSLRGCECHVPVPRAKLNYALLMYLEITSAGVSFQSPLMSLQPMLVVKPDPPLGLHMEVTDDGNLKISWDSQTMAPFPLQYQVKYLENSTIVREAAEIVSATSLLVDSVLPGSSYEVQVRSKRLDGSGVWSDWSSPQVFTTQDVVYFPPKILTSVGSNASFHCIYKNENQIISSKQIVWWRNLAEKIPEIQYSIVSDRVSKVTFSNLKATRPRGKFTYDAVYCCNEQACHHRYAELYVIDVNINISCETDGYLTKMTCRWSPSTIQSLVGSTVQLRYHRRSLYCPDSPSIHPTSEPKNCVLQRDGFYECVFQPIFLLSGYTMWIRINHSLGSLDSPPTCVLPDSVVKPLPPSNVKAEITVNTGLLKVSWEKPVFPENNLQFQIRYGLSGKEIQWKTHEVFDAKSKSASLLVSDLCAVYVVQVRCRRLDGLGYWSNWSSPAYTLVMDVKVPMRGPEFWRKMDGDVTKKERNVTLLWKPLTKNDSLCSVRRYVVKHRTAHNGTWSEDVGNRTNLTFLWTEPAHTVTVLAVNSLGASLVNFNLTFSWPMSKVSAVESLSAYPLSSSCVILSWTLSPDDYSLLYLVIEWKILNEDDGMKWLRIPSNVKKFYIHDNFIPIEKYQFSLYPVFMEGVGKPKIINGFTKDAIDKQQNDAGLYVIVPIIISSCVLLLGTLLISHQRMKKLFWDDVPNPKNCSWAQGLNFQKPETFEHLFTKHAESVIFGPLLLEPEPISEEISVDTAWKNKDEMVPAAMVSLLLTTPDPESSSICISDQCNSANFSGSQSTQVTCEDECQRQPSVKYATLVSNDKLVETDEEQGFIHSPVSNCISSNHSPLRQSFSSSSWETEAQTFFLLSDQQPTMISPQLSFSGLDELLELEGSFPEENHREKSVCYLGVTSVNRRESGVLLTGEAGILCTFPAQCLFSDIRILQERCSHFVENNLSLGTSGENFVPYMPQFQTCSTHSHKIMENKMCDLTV
UniProt P35951, residues 22-862: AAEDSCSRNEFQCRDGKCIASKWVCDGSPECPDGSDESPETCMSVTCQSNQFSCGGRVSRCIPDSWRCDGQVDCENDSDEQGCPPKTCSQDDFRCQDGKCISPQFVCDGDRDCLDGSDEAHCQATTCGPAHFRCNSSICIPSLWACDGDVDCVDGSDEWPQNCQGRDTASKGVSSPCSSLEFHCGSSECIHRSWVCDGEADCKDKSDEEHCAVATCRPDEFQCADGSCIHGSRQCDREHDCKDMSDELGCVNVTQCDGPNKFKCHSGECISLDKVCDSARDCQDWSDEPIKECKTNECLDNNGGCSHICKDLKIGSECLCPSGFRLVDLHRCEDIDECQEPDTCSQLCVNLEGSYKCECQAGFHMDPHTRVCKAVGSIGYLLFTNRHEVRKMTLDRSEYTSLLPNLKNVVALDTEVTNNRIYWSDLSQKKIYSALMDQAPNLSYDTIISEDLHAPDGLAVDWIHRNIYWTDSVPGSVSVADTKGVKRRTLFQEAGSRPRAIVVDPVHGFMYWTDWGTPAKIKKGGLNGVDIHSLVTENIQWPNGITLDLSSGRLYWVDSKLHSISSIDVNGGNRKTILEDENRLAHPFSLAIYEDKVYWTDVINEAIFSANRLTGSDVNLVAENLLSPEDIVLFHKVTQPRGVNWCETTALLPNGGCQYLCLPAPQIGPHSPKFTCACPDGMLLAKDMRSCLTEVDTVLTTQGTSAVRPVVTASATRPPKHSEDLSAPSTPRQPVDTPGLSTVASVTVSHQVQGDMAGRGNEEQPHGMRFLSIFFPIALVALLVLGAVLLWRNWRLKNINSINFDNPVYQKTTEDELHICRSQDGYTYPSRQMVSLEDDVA
UniProt P41160, residues 22-167: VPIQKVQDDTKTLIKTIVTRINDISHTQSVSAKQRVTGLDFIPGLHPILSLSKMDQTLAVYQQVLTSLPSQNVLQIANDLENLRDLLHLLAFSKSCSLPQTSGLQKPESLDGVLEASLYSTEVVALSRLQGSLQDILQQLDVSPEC
UniProt Q62120: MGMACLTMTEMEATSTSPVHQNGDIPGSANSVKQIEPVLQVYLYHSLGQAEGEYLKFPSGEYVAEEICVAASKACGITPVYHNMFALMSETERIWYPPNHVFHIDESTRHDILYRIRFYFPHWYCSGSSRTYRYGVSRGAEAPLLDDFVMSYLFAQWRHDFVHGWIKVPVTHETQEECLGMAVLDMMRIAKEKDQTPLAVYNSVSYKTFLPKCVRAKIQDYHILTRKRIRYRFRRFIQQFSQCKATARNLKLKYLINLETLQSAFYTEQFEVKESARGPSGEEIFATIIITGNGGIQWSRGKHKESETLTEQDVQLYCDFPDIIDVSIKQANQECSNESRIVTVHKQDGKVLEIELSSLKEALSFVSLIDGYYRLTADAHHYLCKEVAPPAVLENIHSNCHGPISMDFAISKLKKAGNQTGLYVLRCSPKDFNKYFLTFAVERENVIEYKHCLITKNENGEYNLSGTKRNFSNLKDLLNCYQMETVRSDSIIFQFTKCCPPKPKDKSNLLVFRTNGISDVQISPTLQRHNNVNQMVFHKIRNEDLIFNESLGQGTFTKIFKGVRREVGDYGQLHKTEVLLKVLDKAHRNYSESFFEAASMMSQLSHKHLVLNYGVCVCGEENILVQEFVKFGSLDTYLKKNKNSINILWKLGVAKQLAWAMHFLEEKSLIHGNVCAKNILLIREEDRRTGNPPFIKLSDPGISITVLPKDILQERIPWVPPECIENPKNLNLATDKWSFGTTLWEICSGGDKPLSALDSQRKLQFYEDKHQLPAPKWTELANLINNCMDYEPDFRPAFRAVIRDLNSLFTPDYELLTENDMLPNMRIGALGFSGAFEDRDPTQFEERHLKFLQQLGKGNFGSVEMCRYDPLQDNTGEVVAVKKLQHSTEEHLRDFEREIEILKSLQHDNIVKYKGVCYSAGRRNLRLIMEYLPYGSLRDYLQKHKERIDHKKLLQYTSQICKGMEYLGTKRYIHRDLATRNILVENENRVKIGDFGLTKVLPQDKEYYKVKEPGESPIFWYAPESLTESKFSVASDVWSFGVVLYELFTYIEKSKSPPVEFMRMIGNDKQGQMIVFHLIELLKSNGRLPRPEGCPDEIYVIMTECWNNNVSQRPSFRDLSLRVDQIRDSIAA

Columns and labels:
[1] = biological target: HA-ObRb (UniProt P48356); experiment: cross-linking; 125I-leptin incubated with GT1-7 cells (untransfected, or transfected with HA-ObR) for 1 h at 4°C, chemical cross-linking, immunoprecipitation with antibodies (with antigen blocking controls), SDS-PAGE; only the binder purified
[2] = biological target: LDL receptor (LDLR) (mouse (endogenous in GT1-7)) (UniProt P35951); experiment: as above
[3] = biological target: leptin receptor ObR (mouse (endogenous in GT1-7)) (UniProt P48356); experiment: as above
[4] = biological target: HA-ObRb (UniProt P48356); experiment: co-IP; GT1-7 cells transiently transfected with HA-ObRb for 48 h, serum-starved overnight, treated with 50 nM leptin or vehicle for 30 min; extracts immunoprecipitated with anti-HA antibody, blotted for JAK2
[5] = biological target: leptin receptor ObR (mouse (endogenous in GT1-7)) (UniProt P48356); experiment: co-IP; GT1-7 cell extracts, cells transfected with control siRNA or LRP1-specific siRNA for 48 h; immunoprecipitated with control or anti-ObR antibody, blotted for JAK2 (also anti-JAK2 precipitate blotted for ObR, with blocking peptide control)

recombinant mouse leptin (from UniProt P41160 22-167) (ligand)
binding [1]: binds | binding [2]: no binding | binding [3]: binds

janus kinase 2 (JAK2) (from UniProt Q62120 1-1132) (enzyme)
binding [4]: binds | binding [5]: binds
